From PubChem BioAssay AID180 (DTP/NCI, 2004)
The list shows only some results of the screen, not a fair sample: it is rich in T/C values a quarter to a half above the control, in often repeated tests (any T/C) and in doses without a T/C. Further doses and runs are listed elsewhere. T/C: endpoint of the treated group in % of that of the vehicle group. Schedule codes are those of the source, taken here to give the interval after Q, in days (D) or hours (H), and the number of doses after X. Some T/C values carry the count of animals alive at the toxicity check (mostly the fifth day); without a count, all were alive then. Some doses have a count of surviving animals in place of a T/C: the source holds a T/C of zero for them, seemingly a mark for toxic or unscored doses. Survivors were counted at the toxicity check, usually on the fifth day, unless a day is given; later deaths do not show. Non-standard residues stand in square brackets, D forms with d. Residues, ends and D or L forms follow the SMILES beside them. ξ: configuration not given here. Ac5c = NC1(C(=O)O)CCCC1; ξS = NC(CO)C(=O)O

System: BDF1 mice, Adenocarcinoma 755 s.c., tumor weight T/C
Assay: NCI In Vivo Anticancer Drug Screen. Data for tumor model Adenocarcinoma 755 (subcutaneous) in B6D2F1 (BDF1) mice
Conditions: T/C endpoint: mean tumor weight, higher T/C = larger tumour; for T/C: evaluated on day 12
Outline: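 Values express treated (T) relative to vehicle-dosed control (C) animals, based on survival or tumour size measured after compound treatment of mice bearing a transplanted tumour.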

[1] = dose: 25.0 mg/kg/injection, schedule: Q01DX011 (ip), vehicle: carboxymethylcellulose (CMC)
[2] = dose: 150.0 mg/kg/injection, schedule: Q01DX011 (ip), vehicle: carboxymethylcellulose (CMC)

CSc1ncc(Br)c(=S)[nH]1
survivor count (dose: 62.0 mg/kg/injection, schedule: Q01DX011 (ip), vehicle: methylcellulose (MC)): 6 of 10 | survivor count (dose: 125.0 mg/kg/injection, schedule: Q01DX011 (ip), vehicle: methylcellulose (MC)): 6 of 10 | survivor count (dose: 250.0 mg/kg/injection, schedule: Q01DX011 (ip), vehicle: methylcellulose (MC)): 6 of 10

CN1NC=Nc2c(Cl)ncnc21
T/C (dose: 6.0 mg/kg/injection, schedule: Q01DX011 (ip), vehicle: carboxymethylcellulose (CMC)): 134 % of control [9 of 10 alive] | T/C (dose: 12.0 mg/kg/injection, schedule: Q01DX011 (ip), vehicle: carboxymethylcellulose (CMC)): 147 % of control [9 of 10 alive] | T/C [1]: 128 % of control [9 of 10 alive]

NC(CO)C(=O)NC1(C(=O)O)CCCC1 (configuration not stated) (H-[ξS]-[Ac5c]-OH)
survivor count (dose: 360.0 mg/kg/injection, schedule: Q01DX011 (ip), vehicle: carboxymethylcellulose (CMC)): 2 of 10

CCCn1cnc2c(SCc3ccccc3F)nc(N)nc21
survivor count (dose: 25.0 mg/kg/injection, schedule: Q01DX011 (ip), vehicle: methylcellulose (MC)): 5 of 10

CN(C)c1ccc(Nc2c3ccccc3nc3ccccc23)cc1
survivor count (dose: 140.0 mg/kg/injection, schedule: Q01DX011 (ip), vehicle: saline): 2 of 10

[I][Hg][CH2]C1COCC([CH2][Hg][I])O1.[I][Hg][CH2]C1COCC([CH2][Hg][I])O1 (configuration not stated)
survivor count (dose: 80.0 mg/kg/injection, schedule: Q01DX011 (ip), vehicle: other): 1 of 10

C=CCc1c[nH]c(=O)[nH]c1=O
survivor count (dose: 500.0 mg/kg/injection, schedule: Q01DX011 (ip), vehicle: saline): 5 of 10

c1ccc(CSc2ncnc3nc[nH]c23)cc1
survivor count (dose: 12.0 mg/kg/injection, schedule: Q01DX011 (ip), vehicle: alkali diluted with saline): 6 of 10 | T/C [1]: 5 % of control | survivor count (dose: 100.0 mg/kg/injection, schedule: Q01DX006 (iv), vehicle: carboxymethylcellulose (CMC)): 0 of 10 | survivor count (dose: 200.0 mg/kg/injection, schedule: Q01DX006 (iv), vehicle: carboxymethylcellulose (CMC)): 0 of 10 | survivor count (dose: 400.0 mg/kg/injection, schedule: Q01DX011 (sc), vehicle: steroid suspending solution): 6 of 10 | survivor count (dose: 800.0 mg/kg/injection, schedule: Q01DX011 (oral), vehicle: carboxymethylcellulose (CMC)): 0 of 10

N#[N+]c1nc[nH]c1C(N)=O
survivor count (dose: 2.5 mg/kg/injection, schedule: Q01DX011 (ip), vehicle: methylcellulose (MC)): 5 of 10 | survivor count (dose: 5.0 mg/kg/injection, schedule: Q01DX011 (ip), vehicle: methylcellulose (MC)): 3 of 10

Cn1c(N)c(C(=O)CCl)c(=O)n(C)c1=O
survivor count (dose: 60.0 mg/kg/injection, schedule: Q01DX011 (ip), vehicle: carboxymethylcellulose (CMC)): 2 of 10 | survivor count (dose: 120.0 mg/kg/injection, schedule: Q01DX011 (ip), vehicle: carboxymethylcellulose (CMC)): 0 of 10 | survivor count (dose: 240.0 mg/kg/injection, schedule: Q01DX011 (ip), vehicle: carboxymethylcellulose (CMC)): 0 of 10

CCOC(=O)C(Cc1ccc(N(CCCl)CCCl)cc1)NC=O (configuration not stated)
survivor count (dose: 320.0 mg/kg/injection, schedule: Q01DX011 (ip), vehicle: carboxymethylcellulose (CMC)): 0 of 10

CC(=O)OCC1CCCC(n2cnc3c(Cl)ncnc32)O1 (configuration not stated)
survivor count (dose: 500.0 mg/kg/injection, schedule: Q01DX011 (ip), vehicle: methylcellulose (MC)): 2 of 10

CCCCCCCCCCCCCCCCC(C(=O)O)C(O)(CC(=O)O)C(=O)O (configuration not stated)
survivor count [2]: 0 of 10

[Cl][Pt+2]([Cl])([Cl])[Cl].[Na+].[S-]c1ncnc2nc[nH]c12.[S-]c1ncnc2nc[nH]c12
survivor count (dose: 56.0 mg/kg/injection, schedule: Q01DX011 (ip), vehicle: carboxymethylcellulose (CMC)): 3 of 10 | survivor count [2]: 0 of 10

CNc1ncnc2c1ncn2C1CC(O)C(CO)O1 (configuration not stated)
T/C (dose: 30.0 mg/kg/injection, schedule: Q01DX011 (ip), vehicle: saline): 126 % of control | T/C (dose: 240.0 mg/kg/injection, schedule: Q01DX011 (ip), vehicle: saline): 145 % of control

O=C(O)C(=O)O.[U]
survivor count (dose: 100.0 mg/kg/injection, schedule: Q01DX011 (ip), vehicle: other): 6 of 10

CC(C)(COS(C)(=O)=O)C(=O)N1CCN(C(=O)C(C)(C)COS(C)(=O)=O)CC1
survivor count (dose: 18.8 mg/kg/injection, schedule: Q01DX011 (ip), vehicle: carboxymethylcellulose (CMC)): 6 of 10

COc1cc2c(c(OC)c1OC)-c1ccc(N)c(=O)cc1[C@@H](NC(C)=O)CC2
survivor count (dose: 8.0 mg/kg/injection, schedule: Q01DX011 (ip), vehicle: saline): 4 of 10
